# Experimental data from PMC9579160.
# These are yes or no findings as the source states them, for the method shown. For some assays here: A result given as binding can be weak or reduced; the word gives no strength. For some assays here: Tags and fused reporters may be left off the sequences shown. For some assays here: In cells and extracts the contact can be indirect.
# T1: GST-fused ROC15(GARP) (Rhythm Of Chloroplast 15, GARP domain, M377-M445) (C. reinhardtii) (UniProt B1B5J3)
# T1 sequence: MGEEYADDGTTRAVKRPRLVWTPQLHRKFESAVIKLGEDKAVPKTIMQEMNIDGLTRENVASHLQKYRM
# Key:
# [1] = molecular target: T1, GST-fused ROC15(GARP) (Rhythm Of Chloroplast 15, GARP domain, M377-M445) (C. reinhardtii); assay: pull-down; GST pull-down, dark: same mixture incubated 20 min at room temperature in the dark and loaded on the GST affinity column directly in the dark; eluate on SDS-PAGE; both purified
# [2] = molecular target: T1, GST-fused ROC15(GARP) (Rhythm Of Chloroplast 15, GARP domain, M377-M445) (C. reinhardtii); assay: pull-down; GST pull-down, lit: 400 μL of 10 mg/mL His-CraCRY(wt)/PHR/CTE with 400 μL of 3 mg/mL GST-ROC15(GARP), room temperature, 20 min dark, then blue light (450 nm LED) 5 min; GST affinity column, 50 mM HEPES, 150 mM NaCl; eluate on SDS-PAGE; both purified
# [3] = molecular target: T1, GST-fused ROC15(GARP) (Rhythm Of Chloroplast 15, GARP domain, M377-M445) (C. reinhardtii); assay: SEC-SAXS; mixture of GST-ROC15(GARP motif only) and CraCRY; Superdex 200, 50 mM HEPES pH 7.4, 150 mM NaCl, 5% glycerol, 25 °C; data compared with a docked model; both purified
# [4] = molecular target: CraCRY::mCitrine(N) (C. reinhardtii); assay: split reporter; BiFC with split mCitrine in live C. reinhardtii cells, read by fluorescence-lifetime imaging; lit (blue light)
# [5] = molecular target: CraCRY::mCitrine(N) (C. reinhardtii); assay: split reporter; BiFC with split mCitrine in live C. reinhardtii cells, read by fluorescence-lifetime imaging; dark
binding [1],binding [2],binding [3],binding [4],binding [5],Molecule
no binding (only in the dark),binds,binds,,,His-tag-fused full-length wild-type CraCRY (C. reinhardtii animal-like cryptochrome)
,,,binds,no binding (only in the dark),"ROC15::mCitrine(C) (full-length ROC15 labeled with split mCitrine C-terminal) (protein, UniProt B1B5J3 1-631) MAFDASGALQSCYGAKEDANMDPAAGLVPLTSSLIPPLLAHAFALPQLAQAPAPAQLQPQATAQGYYGSMLSPALMGALGYATGASYAPVQQQQPSHLASLQYGYLHALATASQQQQQQQQQQQHSAAALLAHAHNAAALAAVRAGQATSSAMSHPLPPAASADTGSARGAGPSASEPERAASASVATNSSGSALRGSSASYGSAAAAAAYAHPLMGLYAALSQQQQQAAAYGASPANSYGAMAPFTTHLHPAYYARPQDAGQAAAAAAAAAAAAGAYGYAQPTASYGSSFGHPASSYGGAPSSILDFSSSLAAAYRPVAMPAMPAASALAAAAAVAAAAGAMPQTSQSVGMTGAVAAGGGANGAVSSLGGGAAGMMGEEYADDGTTRAVKRPRLVWTPQLHRKFESAVIKLGEDKAVPKTIMQEMNIDGLTRENVASHLQKYRMIKRRDVTGTSSDGGRDSGTTAAPTSAGTAAAAQRQAQQQQQRPSDGATAADGTAGCSPAAVSSPAVAAAAPPSTAAAAATPSAPHSAHKPSTHGQGSSGSGGSGCGGSGSGSGGHGSGSSARAGSKRSEPEPPSRPTPQRAVAVTEAALASSAHPAGSSGSGRNSAGGSAAAATAAAAGNGVAVMA"
